# Assay results: article PMC9025464
# The chains behind the UniProt entries cited, without tags or fusion partners.
# UniProt P03372: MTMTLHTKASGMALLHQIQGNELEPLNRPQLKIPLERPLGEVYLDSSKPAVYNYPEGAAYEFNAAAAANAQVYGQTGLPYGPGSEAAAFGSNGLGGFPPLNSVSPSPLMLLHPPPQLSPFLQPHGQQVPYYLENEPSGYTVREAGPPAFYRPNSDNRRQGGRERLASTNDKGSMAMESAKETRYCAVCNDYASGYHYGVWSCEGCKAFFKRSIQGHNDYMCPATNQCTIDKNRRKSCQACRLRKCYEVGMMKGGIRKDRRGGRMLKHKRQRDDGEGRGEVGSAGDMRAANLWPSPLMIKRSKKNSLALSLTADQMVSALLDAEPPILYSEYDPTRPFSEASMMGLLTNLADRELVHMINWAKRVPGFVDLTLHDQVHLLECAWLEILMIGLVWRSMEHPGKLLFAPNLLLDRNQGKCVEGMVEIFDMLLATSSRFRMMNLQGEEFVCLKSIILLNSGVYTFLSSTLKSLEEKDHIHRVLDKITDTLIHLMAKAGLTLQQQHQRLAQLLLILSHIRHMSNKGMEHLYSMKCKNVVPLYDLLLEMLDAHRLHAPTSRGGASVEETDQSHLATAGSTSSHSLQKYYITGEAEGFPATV
# These are yes or no findings as the source states them, for the method shown. In cells and extracts the contact can be indirect. Some results given as binding are weak or reduced against the parent protein; the word gives no strength.
# Target: T1, hepatocyte nuclear factor 4α (human (endogenous in HepG2)) (UniProt P41235)
# T1 sequence: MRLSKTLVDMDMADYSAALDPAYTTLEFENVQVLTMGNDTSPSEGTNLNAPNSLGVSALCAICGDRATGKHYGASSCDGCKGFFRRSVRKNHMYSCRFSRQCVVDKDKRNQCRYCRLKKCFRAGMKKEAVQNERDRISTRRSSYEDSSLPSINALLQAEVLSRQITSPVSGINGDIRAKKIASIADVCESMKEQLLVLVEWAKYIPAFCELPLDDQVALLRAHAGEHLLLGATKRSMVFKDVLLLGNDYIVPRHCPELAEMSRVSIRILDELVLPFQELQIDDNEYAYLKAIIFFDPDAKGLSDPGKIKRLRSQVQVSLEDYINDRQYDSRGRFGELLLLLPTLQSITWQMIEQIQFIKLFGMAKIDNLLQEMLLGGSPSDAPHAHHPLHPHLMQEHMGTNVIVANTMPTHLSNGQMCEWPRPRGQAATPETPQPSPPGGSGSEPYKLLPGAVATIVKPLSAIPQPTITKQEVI
# Assay: co-IP; 2 mg total protein lysate of pHBV1.2-transfected HepG2 cells treated with BA or BAA1 (50 uM) for 4 days; 2 ug anti-HNF4α/anti-ERα antibodies with protein A/G magnetic beads overnight at 4 °C; rabbit IgG as negative control; washed three times with PBS; Western blotting
substance,measurement,value
estrogen receptor α (from UniProt P03372 1-595),binding,binds
